# Assay results reported in PubChem BioAssay AID2685 (National Center for Advancing Translational Sciences (NCATS), 2010).
# This is one part of the list. Shown are side measurements of this screen, not its main read-out; they come without a call. Most of these compounds were active or inconclusive in the main read-out, so they are no random draw. Words in brackets tell the shape of the fitted curve; partial curves, single points and poor fits give uncertain potencies.
# Test: qHTS Assay for Lipid Storage Modulators in Drosophila S3 Cells;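 on cell number change: cells counted by Cell Tracker Red CMTPX staining in the red channel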
# Settings: BODIPY lipid droplet fluorescence, 18-24 h; for cell number change: measured here: cell count max response, cells fed with added oleic acid
# In short: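 Drosophila S3 cells loaded with oleic acid (400 uM, as added) and compounds at several concentrations; lipid droplets imaged by 488-nm laser-scanning cytometry, 500–530 nm intensity and object ratio to cell channel. Percent activity normalized to 20 uM Triacsin C.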
# [1] = measured here: lipid fluorescence (Fed channel) AC50, cells fed with added oleic acid
# [2] = measured here: cell number channel AC50, cells fed with added oleic acid
Compound,cell number change,AC50 [1],AC50 [2]
O=C(C(Cc1ccccc1)n1cccc1)N1CCN(c2cccc(Cl)c2)CC1 (stereo not given),17.1%,"16.4 µM [rising, single point]",–
CCOC(=O)Cc1csc(NC(=O)c2sc3nc4ccc(C)cc4cc3c2N)n1,138%,"29.1 µM [falling, single point]","23.1 µM [rising, partial curve]"
O=C(c1ccc(S(=O)(=O)N2CCCC2)cc1)N(c1ccc(F)cc1)C1C=CS(=O)(=O)C1 (stereo not given),-20.3%,–,–
Cc1csc(NC(=O)CSc2nc3sc(C)c(C)c3c(=O)[nH]2)n1,8.26%,"0.0366 µM [falling, full curve, poor fit]",–
O=C(CSc1ccc2nnc(-c3cccnc3)n2n1)Nc1ccc(F)cc1,-5.49%,"25.9 µM [falling, partial curve, poor fit]",–
CN(C)Cc1c(C(=O)N/N=C/c2ccc(OCc3c(F)cccc3Cl)cc2)nnn1-c1nonc1N,7.55%,"6.51 µM [falling, single point]",–
c1ccc(SCc2nc3ccccc3[nH]2)nc1,35.2%,–,"5.17 µM [rising, single point]"
C=CCN1C(=O)C2(OCCCO2)c2cc(Cl)ccc21,–,"29.1 µM [falling, single point]",–
Cc1cccc(C(=O)OCC(=O)N2CCCCCC2)c1,-14.2%,–,–
O=C(COc1ccc(Cl)cc1)NCCNC(=O)c1cnccn1,15.8%,"20 µM [falling, single point]",–
O=C(Nc1ccc2c(c1)OCCO2)NC12CC3CC(CC(C3)C1)C2,-0.517%,"0.82 µM [rising, partial curve, poor fit]",–
Cc1ccc(NC2=C/C(=N\S(=O)(=O)c3cccs3)c3ccccc3C2=O)c(C)c1,-1.68%,"3.26 µM [falling, partial curve]","2.59 µM [falling, partial curve]"
CCN(CC)Cc1cc(NC2=NS(=O)(=O)c3ccccc32)ccc1OC(=O)c1ccccc1,-14.6%,"29.1 µM [falling, single point]",–
COc1cccc2cc(C(C)N(CCCN3CCOCC3)C(=S)Nc3ccc(C)c(C)c3)oc12 (stereo not given),–,"0.651 µM [rising, single point]","0.164 µM [rising, full curve, poor fit]"
O=C(NCCN1CCOCC1)c1c(O)nc2sccn2c1=O,2.41%,–,–
Cc1ccc(-n2c(C)cc(-c3csc(N)n3)c2C)cc1,2.83%,–,–
COCCCNC(=O)CCCC(=O)NCCCOC,-4.45%,"0.00517 µM [falling, full curve, poor fit]",–
CC(C)N(C(=O)C1CC(=O)OC12CCCCC2)C(C)C (stereo not given),13%,"32.6 µM [falling, single point]",–
C=CCNCCOCCOc1ccc(C)cc1Br,-23.6%,–,"6.51 µM [falling, partial curve, poor fit]"
COC(=O)C1=C(C)NC(=O)/C1=C\c1cc(C)n(-c2ccccc2F)c1C,-10%,"0.0058 µM [falling, full curve]","0.58 µM [falling, partial curve]"

# Structures above that contain a halogen:
Compound,cell number change,AC50 [1],AC50 [2]
O=C(C(Cc1ccccc1)n1cccc1)N1CCN(c2cccc(Cl)c2)CC1 (stereo not given),17.1%,"16.4 µM [rising, single point]",–
O=C(c1ccc(S(=O)(=O)N2CCCC2)cc1)N(c1ccc(F)cc1)C1C=CS(=O)(=O)C1 (stereo not given),-20.3%,–,–
O=C(CSc1ccc2nnc(-c3cccnc3)n2n1)Nc1ccc(F)cc1,-5.49%,"25.9 µM [falling, partial curve, poor fit]",–
CN(C)Cc1c(C(=O)N/N=C/c2ccc(OCc3c(F)cccc3Cl)cc2)nnn1-c1nonc1N,7.55%,"6.51 µM [falling, single point]",–
C=CCN1C(=O)C2(OCCCO2)c2cc(Cl)ccc21,–,"29.1 µM [falling, single point]",–
O=C(COc1ccc(Cl)cc1)NCCNC(=O)c1cnccn1,15.8%,"20 µM [falling, single point]",–
C=CCNCCOCCOc1ccc(C)cc1Br,-23.6%,–,"6.51 µM [falling, partial curve, poor fit]"
COC(=O)C1=C(C)NC(=O)/C1=C\c1cc(C)n(-c2ccccc2F)c1C,-10%,"0.0058 µM [falling, full curve]","0.58 µM [falling, partial curve]"

# More entries

Compound,cell number change,AC50 [1],AC50 [2]
CCC1Nc2ncnc(N3CCN(c4ccccc4)CC3)c2N(Cc2ccc(Cl)cc2)C1=O (stereo not given),-22.4%,"20.6 µM [falling, single point]",–
CCCCOc1ccc2c(c1)/C(=C(\C(Cl)=C(Cl)Cl)[N+](=O)[O-])N2,-42.1%,"29.1 µM [falling, single point]","29.1 µM [falling, single point]"
COc1cccc(CN(C)C(=O)c2ccc3c(=O)n4c(nc3c2)CCC4)c1,12.3%,"29.1 µM [falling, single point]",–
CN(C)CCCNC(=S)N1CCn2c(nc3ccccc32)C1,12.8%,"6.51 µM [falling, single point]",–
CN(C)S(=O)(=O)c1cccc(NC(=O)COc2nc3ccccc3nc2N2CCOCC2)c1,–,"0.103 µM [falling, full curve, poor fit]",–
CC1=NN(C(=O)c2ccc(Cn3nc(C)cc3C)o2)C(O)(C(F)(F)F)C1 (stereo not given),45.1%,"0.58 µM [rising, single point]","16.4 µM [rising, single point]"
CCCCC(=O)Nc1ccc(NC(=O)c2cc(OC)c(OC)c(OC)c2)cn1,4.19%,–,–
O=C(O)c1cccc2sc3cc(Cl)ccc3c(=O)c12,-1.58%,"20.6 µM [rising, single point]",–
Cc1c(Br)c([N+](=O)[O-])nn1CCCC(=O)N1CCN(c2ccccc2)CC1,-2.46%,"1.64 µM [rising, partial curve]",–
O=C(OCc1nc2scc(-c3ccccc3)c2c(=O)[nH]1)c1cc([N+](=O)[O-])ccc1Cl,5.21%,"2.91 µM [rising, single point]",–
CC(C)Oc1ccc(C(=O)NN2C(=O)NC3(CCCCC3)C2=O)cc1,-30.3%,"29.1 µM [falling, single point]","0.259 µM [falling, single point]"
O=C(CSc1nnnn1C1CCCCC1)NCc1ccccc1,24.1%,"16.4 µM [rising, partial curve, poor fit]",–
C=C(C)c1ccc(C(C)(C)NC(=O)N(Cc2ccccc2)Cc2ccco2)cc1,-55.1%,"29.1 µM [falling, single point]","4.11 µM [falling, full curve]"
O=C(CSCc1ccc(Br)cc1)NC1CC1,-10.1%,–,–
CN(C(=O)OCc1ccccc1)C(CC(N)=O)C(=O)O (stereo not given),-9.75%,–,–
COc1ccc(CCNc2nc(-c3cccnc3)nc3ccccc23)cc1OC,–,"29.1 µM [falling, single point]",–
COCCCN(C(=S)Nc1cc(Cl)cc(Cl)c1)C(C)c1ccccn1 (stereo not given),10.4%,"2.31 µM [rising, full curve, poor fit]",–
Cc1cc(C)c(NC(=O)Cn2c(=O)c3cccn3c3ccccc32)c(C)c1,22.8%,"29.1 µM [rising, single point]",–
CC1=C(C)CC(C(=O)NCc2ccc3c(c2)OCO3)C(C(=O)O)C1 (stereo not given),0.0235%,"29.1 µM [rising, single point]",–
